Assay results reported in PubChem BioAssay AID1224921 (Broad Institute, 2016).
Hit rate of the full screen: of about 1,400 compounds, about 350 (25%) were called active. This list was built around the results that the source calls inconclusive (neither active nor inactive); the mix of calls is not that of the screen. The rule behind the calls is not given here.

Assay: C. difficile growth inhibition, confirmation, 4-point retest (AID 1224921);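 note: plate controls were DMSO wells for no effect and levofloxacin 16 µg/mL wells for full effect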
Conditions: Clostridioides difficile clinical isolate growth, OD600, 24 h, active compounds read low; at 30 µM unless noted

Q: For `C[C@@H]1CN([C@H](C)CO)S(=O)(=O)c2ccc(C#CC3CCCC3)cc2O[C@H]1CN(C)Cc1cccnc1`, which max activity is on record?
A: inconclusive: 41.4% [at 8 µM]

Q: With `C[C@@H]1CN([C@@H](C)CO)C(=O)c2cccc(NC(=O)Nc3ccc(C(F)(F)F)cc3)c2O[C@@H]1CN(C)C(=O)Nc1cccc2ccccc12` as the molecule, how does the max activity read?
A: inconclusive: 50.8% [at 1.95 µM]

Q: With `CCCC(=O)Nc1ccc2c(c1)OC[C@H](C)N(Cc1ccncc1)C[C@@H](C)[C@H](OC)CN(C)C2=O` as the molecule, how does the max activity read?
A: inactive: 14.3%

Q: For `C[C@@H]1CN([C@@H](C)CO)C(=O)c2cccc(NC(=O)Nc3ccc(C(F)(F)F)cc3)c2O[C@@H]1CN(C)C(=O)Nc1ccccc1`, which max activity is on record?
A: inconclusive: 56.8% [at 8 µM]

Q: With `CCC(=O)N(C)C[C@@H]1Oc2cc(C#CCC3CCCC3)ccc2S(=O)(=O)N([C@H](C)CO)C[C@H]1C` as the molecule, how does the max activity read?
A: inactive: 29.4%

Q: For `O=C(Nc1ccc2c(c1)OCO2)N[C@H]1CC[C@H](CCNC(=O)C2CC2)O[C@@H]1CO`, which max activity is on record?
A: inactive: -10.4% [at 1.95 µM]

Q: Which max activity does the source give for `C[C@H]1CN([C@@H](C)CO)C(=O)c2cccc(NC(=O)Nc3ccc(C(F)(F)F)cc3)c2O[C@@H]1CN(C)S(=O)(=O)c1ccc(Cl)cc1` here?
A: inconclusive: 58.5%

Q: Which max activity does the source give for `COc1cccc(C#Cc2ccc([C@@H]3[C@@H](CO)N(C(=O)C4CCC4)[C@H]3C#N)cc2)c1` here?
A: inconclusive: 54.5% [at 2.1 µM]

Q: For `CO[C@@H]1CN(C)C(=O)c2ccc(NC(=O)NC(C)C)cc2OC[C@@H](C)N(C(=O)NC(C)C)C[C@H]1C`, which max activity is on record?
A: inactive: -11.6% [at 2.1 µM]

Q: With `Cc1ccc(S(=O)(=O)Nc2ccc3c(c2)CC(=O)N([C@@H](C)CO)C[C@@H](C)[C@H](CN(C)Cc2ccc(-c4ccccc4)cc2)O3)cc1` as the molecule, how does the max activity read?
A: inconclusive: 47.1% [at 8 µM]

Q: Which max activity does the source give for `CCCC#Cc1ccc([C@H]2[C@@H](C#N)N(S(=O)(=O)c3cccc(F)c3)[C@@H]2CO)cc1` here?
A: inconclusive: 50.6% [at 1.95 µM]

Q: For `C[C@@H]1CN([C@@H](C)CO)S(=O)(=O)c2ccc(C#CC3CCCCC3)cc2O[C@H]1CN(C)Cc1cccnc1`, which max activity is on record?
A: inconclusive: 50.3%

Q: With `COc1ccccc1CNC(=O)C[C@@H]1C[C@H]2c3cc(NC(=O)Nc4ccc(C(F)(F)F)cc4)ccc3O[C@H]2[C@@H](CO)O1` as the molecule, how does the max activity read?
A: inconclusive: 41%

Q: For `CCS(=O)(=O)N1[C@H](C#N)[C@H](c2ccc(C#CCC3CCCC3)cc2)[C@@H]1CO`, which max activity is on record?
A: inconclusive: 45.4% [at 2.1 µM]

Q: For `Cc1ccc(S(=O)(=O)Nc2ccc3c(c2)CC(=O)N([C@H](C)CO)C[C@H](C)[C@@H](CN(C)Cc2ccc(-c4ccccc4)cc2)O3)cc1`, which max activity is on record?
A: inconclusive: 46.9% [at 1.95 µM]

Q: For `N#C[C@@H]1[C@@H](c2ccc(C#Cc3cccc(F)c3)cc2)[C@H](CO)N1C(=O)C1CCCC1`, which max activity is on record?
A: inconclusive: 51.8%

Q: With `C[C@@H]1CN([C@@H](C)CO)C(=O)c2cccc(NC(=O)Nc3ccc(C(F)(F)F)cc3)c2O[C@H]1CN(C)C(=O)NC1CCCCC1` as the molecule, how does the max activity read?
A: inconclusive: 51.5%

Q: With `C[C@@H]1CN([C@@H](C)CO)C(=O)Cc2cc(NC(=O)Nc3ccccc3)ccc2O[C@H]1CN(C)Cc1ccc(C(F)(F)F)cc1` as the molecule, how does the max activity read?
A: inconclusive: 50.9%

Q: Which max activity does the source give for `CO[C@@H]1CN(C)C(=O)c2ccc(NC(=O)c3nc4ccccc4s3)cc2OC[C@H](C)N(Cc2ccncc2)C[C@@H]1C` here?
A: inactive: 26.2%

Q: For `C[C@H]1CN([C@@H](C)CO)C(=O)c2cccc(NC(=O)Nc3ccc(C(F)(F)F)cc3)c2O[C@H]1CN(C)C(=O)Nc1ccccc1`, which max activity is on record?
A: inconclusive: 53.4% [at 8 µM]

Q: With `CN(C)C(=O)c1ccc(-c2ccc([C@@H]3[C@@H](CO)N(C(=O)C4CCCCC4)[C@H]3C#N)cc2)cc1` as the molecule, how does the max activity read?
A: inactive: -13.2% [at 0.5 µM]

Q: With `C[C@@H]1CN([C@H](C)CO)C(=O)Cc2cc(NC(=O)c3ccncc3)ccc2O[C@H]1CN(C)Cc1ccc(Cl)c(Cl)c1` as the molecule, how does the max activity read?
A: inactive: 5.9% [at 35 µM]

Q: With `C[C@H]1CN([C@@H](C)CO)C(=O)c2cc(NC(=O)Cc3ccccc3)ccc2O[C@H]1CN(C)C(=O)Nc1ccccc1` as the molecule, how does the max activity read?
A: inactive: -15.5%

Q: For `O=C(C[C@H]1CC[C@H]2[C@@H](COC[C@@H](O)CN2Cc2cc(F)ccc2F)O1)NCc1ccc(Cl)cc1`, which max activity is on record?
A: inactive: 12.5%

Q: With `C[C@H](CO)N1C[C@H](C)[C@H](CN(C)C(=O)c2cccc(F)c2)Oc2ncc(C3=CCCCC3)cc2C1=O` as the molecule, how does the max activity read?
A: inactive: -6.68% [at 8 µM]

Q: For `CCc1cnc(N2[C@H](C#N)[C@H](c3ccc(-c4cccc(F)c4)cc3)[C@@H]2CO)s1`, which max activity is on record?
A: inconclusive: 48.9% [at 0.5 µM]

Q: With `C[C@@H]1CN([C@H](C)CO)S(=O)(=O)c2ccc(C#CC3CCCCC3)cc2O[C@H]1CN(C)Cc1cccnc1` as the molecule, how does the max activity read?
A: inconclusive: 42.3% [at 8 µM]

Q: Which max activity does the source give for `CO[C@@H]1CN(C)C(=O)c2cc(NC(=O)c3nc4ccccc4s3)ccc2OC[C@@H](C)N(Cc2ccncc2)C[C@H]1C` here?
A: inconclusive: 47.9% [at 9 µM]

Q: With `N#C[C@@H]1[C@@H](c2ccc(C#Cc3ccccc3F)cc2)[C@H](CO)N1C(=O)C1CCC1` as the molecule, how does the max activity read?
A: inconclusive: 56.4% [at 8 µM]

Q: Which max activity does the source give for `COc1ccc(CN(C)C[C@@H]2OCCCC[C@@H](C)Oc3ccc(NC(=O)Nc4ccc(C(F)(F)F)cc4)cc3C(=O)N([C@@H](C)CO)C[C@@H]2C)cc1` here?
A: inconclusive: 41.2% [at 2.1 µM]

Q: With `C[C@H](CO)N1C[C@H](C)[C@H](CN(C)C(=O)NC2CCCCC2)Oc2cc(C#Cc3ccc(F)cc3)ccc2S1(=O)=O` as the molecule, how does the max activity read?
A: inactive: 14.3%

Q: Which max activity does the source give for `C[C@H](CO)N1C[C@H](C)[C@@H](CN(C)C(=O)Nc2cccc3ccccc23)Oc2c(NC(=O)Nc3ccc(C(F)(F)F)cc3)cccc2C1=O` here?
A: inconclusive: 60% [at 1.95 µM]

Q: With `C[C@H](CO)N1C[C@H](C)[C@H](CN(C)C(=O)Nc2ccc(C(F)(F)F)cc2)Oc2c(NC(=O)Nc3ccc4c(c3)OCO4)cccc2C1=O` as the molecule, how does the max activity read?
A: inconclusive: 52.9%

Q: Which max activity does the source give for `C[C@@H]1CN([C@H](C)CO)C(=O)c2cc(NS(=O)(=O)c3ccc(Cl)cc3)ccc2O[C@@H](C)CCCCO[C@H]1CN(C)Cc1ccc(Cl)c(Cl)c1` here?
A: inconclusive: 47.2% [at 8 µM]
